Laboratory results published in the supplement of paper PMC4604168 (melanoma cell lines).
The other results are listed elsewhere or left out. Many values rest on one well or one pass, so single values are uncertain.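 Imaging used 1,536-well plates; nuclei positive for cleaved PARP by antibody were divided by total DNA-stained nuclei to yield the apoptosis fraction. Doses for screening kept most cells viable, and cell lines differ markedly in resting and induced cleaved-PARP levels.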

What follows are compounds tested on 501Mel (assay: cleaved PARP positive nuclei fraction relative to DMSO control; melanoma cells; higher = more apoptosis). Conditions: library dose: low library concentration; 72 h.

Structure (SMILES)	cleaved PARP positive nuclei fraction [%]
CS(=O)(=O)c1ccc(C(=O)Nc2ccc(Cl)c(-c3ccccn3)c2)c(Cl)c1 [vismodegib] + COc1cc(N2CCC(N3CCN(C)CC3)CC2)ccc1Nc1ncc(Cl)c(Nc2ccccc2S(=O)(=O)C(C)C)n1 [NVP-TAE684] (first compound 1 µM, partner dose 0.08 µM)	104
NC(=O)c1ccc(N(C(N)=O)c2c(F)cccc2F)nc1-c1ccc(F)cc1F + O=C(O)C(=O)Nc1sc2c(c1C(=O)O)CCNC2 [TCS401] (first compound 0.4 µM, partner dose 1.66667 µM)	160
CCN(CC)CCNC(=O)c1c(C)[nH]c(/C=C2\C(=O)Nc3ccc(F)cc32)c1C [sunitinib] + CC(C)CCN1c2nc(Nc3cc(F)c(O)c(F)c3)ncc2N(C)C(=O)C1C [BID1870] (first compound 0.4 µM, partner dose 0.2 µM)	87.5

Each compound was assayed on A101D in the same assay as above. Conditions: library dose: low library concentration; 72 h.

Structure (SMILES)	cleaved PARP positive nuclei fraction [%]
NC1(c2ccc(-c3nc4ccn5c(=O)[nH]nc5c4cc3-c3ccccc3)cc2)CCC1 + Cc1cc([N+](=O)[O-])ccc1NS(=O)(=O)c1cc(Cl)ccc1Cl [FH535] (first compound 0.4 µM, partner dose 1 µM)	17.2
NC1(c2ccc(-c3nc4ccn5c(=O)[nH]nc5c4cc3-c3ccccc3)cc2)CCC1 + O=S(=O)(c1ccccc1)N(CC(F)(F)F)c1ccc(C(O)(C(F)(F)F)C(F)(F)F)cc1 [T0901317] (first compound 0.4 µM, partner dose 1.4 µM)	24.8
CS(=O)(=O)c1ccc(C(=O)Nc2ccc(Cl)c(-c3ccccn3)c2)c(Cl)c1 [vismodegib] + Oc1cc(-c2nc(-c3ccccc3)[nH]c2-c2ccncc2)ccc1Cl [L779450] (first compound 1 µM, partner dose 0.2 µM)	16.6
C[C@]1(O)C[C@@H](c2nc(-c3ccc4ccc(-c5ccccc5)nc4c3)c3c(N)nccn32)C1 + CC(C)CCN1c2nc(Nc3cc(F)c(O)c(F)c3)ncc2N(C)C(=O)C1C [BID1870] (first compound 0.4 µM, partner dose 0.2 µM)	29.4
Cn1cnc2c(F)c(Nc3ccc(Br)cc3Cl)c(C(=O)NOCCO)cc21 [selumetinib] + CC(C)CCN1c2nc(Nc3cc(F)c(O)c(F)c3)ncc2N(C)C(=O)C1C [BID1870] (first compound 0.015 µM, partner dose 0.2 µM)	96.8
C[C@]1(O)C[C@@H](c2nc(-c3ccc4ccc(-c5ccccc5)nc4c3)c3c(N)nccn32)C1 + CCN(CC)CCCCNc1ncc2cc(-c3cc(OC)cc(OC)c3)c(NC(=O)NC(C)(C)C)nc2n1 [PD173074] (first compound 0.4 µM, partner dose 0.1 µM)	14.5
CCCCCCCCc1ccc(CCC(N)(CO)CO)cc1 [fingolimod] + Cn1cc(/C=C2\C(=O)Nc3cccnc32)c2ccccc21 [GW441756] (first compound 2 µM, partner dose 0.4 µM)	74.9
CS(=O)(=O)c1ccc(C(=O)Nc2ccc(Cl)c(-c3ccccn3)c2)c(Cl)c1 [vismodegib] + COc1ccc(COc2ccc(Cc3cnc(N)nc3N)cc2OC)cc1 [GW2580] (first compound 1 µM, partner dose 1 µM)	26.1
CC(=O)O[C@@]12CO[C@@H]1C[C@H](O)[C@@]1(C)C(=O)[C@H](O)C3=C(C)[C@@H](OC(=O)[C@H](O)[C@@H](NC(=O)OC(C)(C)C)c4ccccc4)C[C@@](O)([C@@H](OC(=O)c4ccccc4)[C@H]21)C3(C)C [Docetaxel] + c1cc(-c2cnn3cc(-c4ccc(OCCN5CCCCC5)cc4)cnc23)ccn1 [Dorsomorphin] (first compound 0.0001 µM, partner dose 0.4 µM)	113
CS(=O)(=O)c1ccc(C(=O)Nc2ccc(Cl)c(-c3ccccn3)c2)c(Cl)c1 [vismodegib] + O=C(Nc1ccccc1)c1cc([N+](=O)[O-])ccc1Cl [GW9662] (first compound 1 µM, partner dose 2 µM)	34.2
NC(=O)c1ccc(N(C(N)=O)c2c(F)cccc2F)nc1-c1ccc(F)cc1F + COc1ccc(-c2ccc3c(N4CCOCC4)nc(N4C[C@@H](C)O[C@@H](C)C4)nc3n2)cc1CO [KU0063794] (first compound 0.4 µM, partner dose 0.02 µM)	26.8

A different layout for part of the listing above:
Structure (SMILES),cleaved PARP positive nuclei fraction [%]
"C[C@]1(O)C[C@@H](c2nc(-c3ccc4ccc(-c5ccccc5)nc4c3)c3c(N)nccn32)C1 + CC(C)CCN1c2nc(Nc3cc(F)c(O)c(F)c3)ncc2N(C)C(=O)C1C [BID1870] (first compound 0.4 µM, partner dose 0.2 µM)",29.4
"Cn1cnc2c(F)c(Nc3ccc(Br)cc3Cl)c(C(=O)NOCCO)cc21 [selumetinib] + CC(C)CCN1c2nc(Nc3cc(F)c(O)c(F)c3)ncc2N(C)C(=O)C1C [BID1870] (first compound 0.015 µM, partner dose 0.2 µM)",96.8
